Like-named read-outs stand apart in the source and are kept apart here.
System: Human tumor cell lines MCF-7 (breast adenocarcinoma)
Assay: Cell-growth inhibition assay (MTT cell proliferation assay, 4 days)
Type: cell-based
Settings: MCF7, 96 h, MCF-7, 4 days incubation
Protocol: Human tumor cell lines MCF-7 (breast adenocarcinoma were obtained from the National Cancer Institute and maintained at 100% humidity and 5% CO2 at 37 °C. Cell lines were cultured in RPMI-1640 medium supplemented with 2 mM L-glutamine and 10% fetal bovine serum (Gibco, Grand Island, NY) at 37°C in a 5% CO2 atmosphere with 100% humidity. Compound stock solutions were typically prepared in water at a concentration of 0.04 M. A broth microdilution method was used to determine the bisphosphonate growth inhibition IC50 values. Compounds were half log serial diluted using cell culture media into 96-well TC-treated round bottom plates (Corning Inc., Corning, NY) typically from 1264 µM to 40 nM, but in some cases compounds were run over a larger concentration range to enable accurate IC50 determinations. Cells were plated at a density of 5000 cells/well. […]

IC50 (molar basis, read-out: IC50): 210 ± 6 µM
IC50 (per-bisphosphonate basis, read-out: IC50 per BP): 210 ± 6 µM
SMILES: NCCCC(O)(P(=O)(O)O)P(=O)(O)O [Ale, alendronate]

— EP3098228A1, “POLYOXOMOLYBDATE-BISPHOSPHONATE COMPLEX CONTAINING A HETEROMETALLIC ION DIFFERENT FROM MOLYBDENUM” (CENTRE NATIONAL DE LA RECHERCHE SCIENTIFIQUE, priority 2015, dated 2016)
